Laboratory results reported in paper PMC12136000.
These are yes or no findings as the source states them, for the method shown. In cells and extracts the contact can be indirect. Binding calls can cover weak binding; strength is not graded here.

Chains of the proteins cited; added tags and fusions are not shown. Lines headed by an entry give the natural chain unless they say otherwise; changes in a name come on top.
UniProt O15371: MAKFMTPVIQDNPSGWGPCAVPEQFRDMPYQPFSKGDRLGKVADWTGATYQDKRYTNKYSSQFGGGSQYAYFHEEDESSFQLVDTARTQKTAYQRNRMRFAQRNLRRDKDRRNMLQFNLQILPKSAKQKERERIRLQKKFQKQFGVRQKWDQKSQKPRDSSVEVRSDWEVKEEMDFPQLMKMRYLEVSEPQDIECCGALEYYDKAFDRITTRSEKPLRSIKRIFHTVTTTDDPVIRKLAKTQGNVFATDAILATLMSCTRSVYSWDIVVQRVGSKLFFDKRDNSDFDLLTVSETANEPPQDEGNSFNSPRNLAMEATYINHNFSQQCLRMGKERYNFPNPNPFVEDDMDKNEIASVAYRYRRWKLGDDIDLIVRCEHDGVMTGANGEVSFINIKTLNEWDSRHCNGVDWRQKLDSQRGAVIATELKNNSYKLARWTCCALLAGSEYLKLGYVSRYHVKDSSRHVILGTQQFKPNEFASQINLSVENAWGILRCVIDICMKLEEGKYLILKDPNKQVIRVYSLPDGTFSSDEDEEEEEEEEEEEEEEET
UniProt Q9Y262: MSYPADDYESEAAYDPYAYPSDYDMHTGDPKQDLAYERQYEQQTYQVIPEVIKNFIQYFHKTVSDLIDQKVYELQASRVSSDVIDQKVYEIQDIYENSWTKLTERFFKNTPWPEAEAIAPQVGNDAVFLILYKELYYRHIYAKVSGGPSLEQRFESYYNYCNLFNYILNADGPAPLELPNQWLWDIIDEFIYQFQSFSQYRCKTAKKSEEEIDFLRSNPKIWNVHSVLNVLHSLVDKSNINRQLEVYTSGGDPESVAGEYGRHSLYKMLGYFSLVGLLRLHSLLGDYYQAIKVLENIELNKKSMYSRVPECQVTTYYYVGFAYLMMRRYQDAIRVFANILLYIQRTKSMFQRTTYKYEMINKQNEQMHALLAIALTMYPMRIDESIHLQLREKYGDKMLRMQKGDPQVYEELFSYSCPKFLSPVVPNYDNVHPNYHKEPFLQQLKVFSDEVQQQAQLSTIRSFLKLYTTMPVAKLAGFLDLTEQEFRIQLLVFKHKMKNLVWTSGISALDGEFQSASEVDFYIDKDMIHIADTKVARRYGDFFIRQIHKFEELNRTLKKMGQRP
UniProt P55884: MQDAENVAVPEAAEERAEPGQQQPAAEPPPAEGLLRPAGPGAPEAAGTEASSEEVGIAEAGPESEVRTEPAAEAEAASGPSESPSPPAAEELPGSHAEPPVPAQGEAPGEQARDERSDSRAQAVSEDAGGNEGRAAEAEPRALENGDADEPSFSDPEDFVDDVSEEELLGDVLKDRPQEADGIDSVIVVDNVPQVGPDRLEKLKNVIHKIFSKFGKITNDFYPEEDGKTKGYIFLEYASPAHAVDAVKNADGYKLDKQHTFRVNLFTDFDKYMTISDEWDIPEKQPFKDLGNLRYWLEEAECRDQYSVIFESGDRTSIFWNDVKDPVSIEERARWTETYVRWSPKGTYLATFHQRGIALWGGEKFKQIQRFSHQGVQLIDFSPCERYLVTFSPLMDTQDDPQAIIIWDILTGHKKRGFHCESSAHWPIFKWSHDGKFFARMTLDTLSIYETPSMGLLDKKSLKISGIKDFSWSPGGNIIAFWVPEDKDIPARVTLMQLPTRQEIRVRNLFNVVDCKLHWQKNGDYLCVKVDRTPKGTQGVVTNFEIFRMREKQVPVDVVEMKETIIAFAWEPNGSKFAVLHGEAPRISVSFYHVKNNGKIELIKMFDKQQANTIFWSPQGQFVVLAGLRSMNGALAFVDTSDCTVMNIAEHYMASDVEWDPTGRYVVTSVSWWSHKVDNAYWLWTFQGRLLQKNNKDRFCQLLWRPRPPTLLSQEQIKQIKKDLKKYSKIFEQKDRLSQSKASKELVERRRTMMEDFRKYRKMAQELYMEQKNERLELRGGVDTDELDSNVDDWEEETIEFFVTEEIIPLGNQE
UniProt Q04637: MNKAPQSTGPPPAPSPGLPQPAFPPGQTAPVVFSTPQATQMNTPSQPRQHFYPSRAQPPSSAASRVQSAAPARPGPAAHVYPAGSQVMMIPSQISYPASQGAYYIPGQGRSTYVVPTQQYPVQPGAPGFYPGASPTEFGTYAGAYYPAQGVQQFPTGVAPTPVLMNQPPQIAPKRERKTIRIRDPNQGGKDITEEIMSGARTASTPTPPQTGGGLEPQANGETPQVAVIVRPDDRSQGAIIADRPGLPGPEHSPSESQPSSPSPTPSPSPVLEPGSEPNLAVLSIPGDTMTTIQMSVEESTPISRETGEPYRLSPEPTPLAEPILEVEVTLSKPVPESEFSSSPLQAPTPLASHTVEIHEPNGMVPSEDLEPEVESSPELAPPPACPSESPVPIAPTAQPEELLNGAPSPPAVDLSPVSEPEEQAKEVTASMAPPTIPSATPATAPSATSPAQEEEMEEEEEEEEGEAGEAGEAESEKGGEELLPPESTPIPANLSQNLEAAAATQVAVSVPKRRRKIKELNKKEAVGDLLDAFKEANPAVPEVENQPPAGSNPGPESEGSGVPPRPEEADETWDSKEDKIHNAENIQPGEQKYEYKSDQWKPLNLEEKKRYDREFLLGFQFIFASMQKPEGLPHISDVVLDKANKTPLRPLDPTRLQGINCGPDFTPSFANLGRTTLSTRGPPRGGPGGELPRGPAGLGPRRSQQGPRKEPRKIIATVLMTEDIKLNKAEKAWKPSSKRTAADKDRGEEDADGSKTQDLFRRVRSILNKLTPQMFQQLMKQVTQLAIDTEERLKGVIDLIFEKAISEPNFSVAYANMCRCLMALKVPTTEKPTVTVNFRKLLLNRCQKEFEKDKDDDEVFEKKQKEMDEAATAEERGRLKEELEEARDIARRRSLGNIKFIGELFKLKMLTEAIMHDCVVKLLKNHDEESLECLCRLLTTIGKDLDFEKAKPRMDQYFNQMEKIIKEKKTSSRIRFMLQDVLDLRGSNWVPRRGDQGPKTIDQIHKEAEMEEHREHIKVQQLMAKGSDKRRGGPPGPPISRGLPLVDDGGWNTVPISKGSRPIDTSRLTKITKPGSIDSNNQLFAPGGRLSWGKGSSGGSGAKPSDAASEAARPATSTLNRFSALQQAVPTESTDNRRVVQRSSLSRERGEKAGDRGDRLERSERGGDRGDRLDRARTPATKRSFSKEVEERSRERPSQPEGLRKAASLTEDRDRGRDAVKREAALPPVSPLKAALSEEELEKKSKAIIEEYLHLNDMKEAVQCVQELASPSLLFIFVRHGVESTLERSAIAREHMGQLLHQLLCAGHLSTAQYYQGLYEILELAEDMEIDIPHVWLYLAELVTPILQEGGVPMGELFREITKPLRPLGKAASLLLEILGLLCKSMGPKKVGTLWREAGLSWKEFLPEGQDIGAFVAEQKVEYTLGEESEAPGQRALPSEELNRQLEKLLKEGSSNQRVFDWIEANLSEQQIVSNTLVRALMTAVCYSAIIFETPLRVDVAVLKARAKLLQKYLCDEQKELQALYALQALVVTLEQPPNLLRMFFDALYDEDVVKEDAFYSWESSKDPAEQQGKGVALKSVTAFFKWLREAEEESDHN

target: phospho-mimetic eIF3D^DD-FLAG (UniProt O15371); assay: co-IP; HeLa lysate (50 mM Tris pH7.5, 150 mM NaCl, 1% Triton-X, Benzonase) on anti-flag-beads for 2 h at 4 °C, three washes, western blot; cells treated for 2 h with DMSO or with 3 µM of the CK2 inhibitor CX-5011 before lysis

binding, binds:
eIF3l (from UniProt Q9Y262 1-564), eIF3b (from UniProt P55884 1-814), eIF4G1 (from UniProt Q04637 1-1599)
